Results are given in words; binding and its absence hold for the method and conditions named. Binding seen in cells or lysates may run through a third protein. Binding calls can cover weak binding; strength is not graded here.
B1: TgGRA1 (protein, UniProt P13403 25-190)
chain: AEGGDNQSSAVSDRASLFGLLSGGTGQGLGIGESVDLEMMGNTYRVERPTGNPDLLKIAIKASDGSYSEVGNVNVEEVIDTMKSMQRDEDIFLRALNKGETVEEAIEDVAQAEGLNSEQTLQLEDAVSAVASVVQDEMKVIDDVQQLEKDKQQLKDDIGFLTGERE
B2: TgGRA4 (protein, UniProt Q27002 21-345)
chain: GECSFGSHLADMAGLSGRHDKERHQAKKRYYHSMYGNQTPYPYANGQQASPPPQGQLLIIQNPDGSFMIVDQQGVPQVPQAAGGPGSPMNGGYYMPTGVYTAQVVPGTPGHPVQAIPQQPLRTQATATYYHPAAVPPPGPSVFVFTPSSVQPGAEVTPGYSGLQLRQQSQYGYSYPGTTSTPTPPPPASYGYPVFPAFPRLPAFSDSVSVSTEDSGLTGVKDSSSSESTVTPADEAASESEEGDKTSRKSKVKKGILTGLGVAATLAAAAAAAKAVKGFGGTRTSTAPAEAGKTELDDGYRPPPFNPRPSPYAELLKDLERMRKE

Biological target: TgGRA14 endogenously epitope-tagged at the C-terminus with 6x-HA (ME49Δku80 GRA14-HA6x) (Toxoplasma gondii (ME49, type II))
Assay: co-IP; anti-HA immunoprecipitation from lysates of infected cultures (ME49Δku80 GRA14-HA6x against untagged control), immunoblot of the immunoprecipitation samples

Binder | binding
B1 | binds
B2 | binds

Source: publication PMC8700025
